The text below walks through data of PMC10850974.

The chains behind the UniProt entries cited, without tags or fusion partners. Residues count along the entry.
UniProt P15208, residues 753-1372: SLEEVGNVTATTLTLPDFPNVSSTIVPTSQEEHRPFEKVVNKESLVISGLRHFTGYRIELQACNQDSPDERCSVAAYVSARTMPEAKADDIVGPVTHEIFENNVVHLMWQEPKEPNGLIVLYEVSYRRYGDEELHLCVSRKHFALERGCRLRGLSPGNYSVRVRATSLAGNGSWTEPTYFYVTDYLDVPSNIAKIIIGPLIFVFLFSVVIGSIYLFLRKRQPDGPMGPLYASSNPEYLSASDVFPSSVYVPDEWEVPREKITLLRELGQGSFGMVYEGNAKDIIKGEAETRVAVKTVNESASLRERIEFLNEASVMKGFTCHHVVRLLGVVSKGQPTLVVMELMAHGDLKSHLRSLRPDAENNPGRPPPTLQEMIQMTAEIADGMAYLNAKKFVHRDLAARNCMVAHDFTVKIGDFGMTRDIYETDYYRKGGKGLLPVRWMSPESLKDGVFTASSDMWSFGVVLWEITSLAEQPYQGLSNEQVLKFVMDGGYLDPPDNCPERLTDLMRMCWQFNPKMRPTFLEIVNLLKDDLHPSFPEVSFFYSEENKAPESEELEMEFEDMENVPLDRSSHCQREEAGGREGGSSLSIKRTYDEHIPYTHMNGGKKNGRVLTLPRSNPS

Results are given in words; binding and its absence hold for the method and conditions named. In cells and extracts the contact can be indirect. Some binding calls cover weakened binding; strength is not graded here.

In experiment [1] the target is T1, protein-tyrosine phosphatase 1B (mouse (endogenous in mouse skeletal muscle and C2C12 myotubes)) (UniProt P35821).
T1 sequence: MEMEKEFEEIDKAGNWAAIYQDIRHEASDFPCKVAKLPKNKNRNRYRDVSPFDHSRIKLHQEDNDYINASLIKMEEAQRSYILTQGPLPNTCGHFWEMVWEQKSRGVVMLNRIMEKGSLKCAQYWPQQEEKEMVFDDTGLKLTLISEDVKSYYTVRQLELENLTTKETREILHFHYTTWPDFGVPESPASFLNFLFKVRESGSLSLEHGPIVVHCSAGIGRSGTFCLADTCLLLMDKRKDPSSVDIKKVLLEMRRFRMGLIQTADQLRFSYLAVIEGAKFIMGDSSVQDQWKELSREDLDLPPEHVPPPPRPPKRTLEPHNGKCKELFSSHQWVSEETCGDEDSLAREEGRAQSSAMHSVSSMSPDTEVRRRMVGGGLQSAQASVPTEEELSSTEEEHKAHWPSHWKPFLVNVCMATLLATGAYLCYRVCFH
The experiment in a line: co-IP; differentiated C2C12 myotube lysates in nondenaturing lysis buffer (20 mM Tris-HCl pH8.0, 137 mM NaCl, 1% Nonidet P-40, 2 mM EDTA); IP with antibody against PTP1B, Western blot for β5 and IRβ; cells treated with β5 blocking (5 μg/ml) or isotype control antibody, or rMFGE8 (10 μg/ml) or BSA, with and without insulin (5 and 30 min). Background: Immunoblotting shows a protein as a band on a membrane.

For experiment [2], the target named is T2, β5 integrin (mouse (endogenous in mouse skeletal muscle and C2C12 myotubes)) (UniProt O70309).
T2 sequence: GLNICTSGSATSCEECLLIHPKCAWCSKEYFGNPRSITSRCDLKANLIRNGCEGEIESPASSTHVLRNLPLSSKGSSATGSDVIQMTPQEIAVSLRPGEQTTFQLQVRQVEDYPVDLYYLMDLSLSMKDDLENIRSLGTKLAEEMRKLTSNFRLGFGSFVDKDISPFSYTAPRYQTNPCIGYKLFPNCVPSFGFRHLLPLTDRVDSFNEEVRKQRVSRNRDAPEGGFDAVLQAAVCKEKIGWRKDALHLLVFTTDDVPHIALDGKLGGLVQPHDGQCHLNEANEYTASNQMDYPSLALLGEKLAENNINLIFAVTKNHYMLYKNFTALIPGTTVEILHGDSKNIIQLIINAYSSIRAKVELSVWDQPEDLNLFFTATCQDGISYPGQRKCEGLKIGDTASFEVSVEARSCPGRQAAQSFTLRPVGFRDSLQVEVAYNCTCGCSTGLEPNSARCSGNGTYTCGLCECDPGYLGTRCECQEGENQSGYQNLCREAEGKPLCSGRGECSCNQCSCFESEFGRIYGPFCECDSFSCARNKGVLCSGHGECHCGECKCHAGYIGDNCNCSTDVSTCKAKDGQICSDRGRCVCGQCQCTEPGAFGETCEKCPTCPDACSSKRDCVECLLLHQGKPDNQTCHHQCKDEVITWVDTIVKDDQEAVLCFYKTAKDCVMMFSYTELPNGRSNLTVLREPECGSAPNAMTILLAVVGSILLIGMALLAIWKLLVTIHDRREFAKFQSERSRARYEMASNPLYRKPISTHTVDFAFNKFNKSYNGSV
The experiment in a line: co-IP; hind leg skeletal muscle lysates of WT mice in nondenaturing lysis buffer (20 mM Tris-HCl pH8.0, 137 mM NaCl, 1% Nonidet P-40, 2 mM EDTA); IP overnight with antibody against PTP1B or β5 integrin, protein G Dyna beads, Western blot for IRβ, β5, PTP1B; mice treated with or without IP insulin (1 U/kg, 60 min) after β5 blocking or isotype control antibody; also mice fasted 16 h or refed 1 h.

The target in experiment [3] is T1, protein-tyrosine phosphatase 1B (mouse (endogenous in mouse skeletal muscle and C2C12 myotubes)). The description is as above.

Turning to “insulin receptor β subunit (from UniProt P15208 753-1372)”, the binding result in experiment [1], in experiment [2] and in experiment [3] was “binds” each time.

B1: protein-tyrosine phosphatase 1B (enzyme, UniProt P35821 1-432)
chain: MEMEKEFEEIDKAGNWAAIYQDIRHEASDFPCKVAKLPKNKNRNRYRDVSPFDHSRIKLHQEDNDYINASLIKMEEAQRSYILTQGPLPNTCGHFWEMVWEQKSRGVVMLNRIMEKGSLKCAQYWPQQEEKEMVFDDTGLKLTLISEDVKSYYTVRQLELENLTTKETREILHFHYTTWPDFGVPESPASFLNFLFKVRESGSLSLEHGPIVVHCSAGIGRSGTFCLADTCLLLMDKRKDPSSVDIKKVLLEMRRFRMGLIQTADQLRFSYLAVIEGAKFIMGDSSVQDQWKELSREDLDLPPEHVPPPPRPPKRTLEPHNGKCKELFSSHQWVSEETCGDEDSLAREEGRAQSSAMHSVSSMSPDTEVRRRMVGGGLQSAQASVPTEEELSSTEEEHKAHWPSHWKPFLVNVCMATLLATGAYLCYRVCFH
As for B1, the binding result in experiment [2] is on record as “binds”.

B2: β5 integrin (receptor, UniProt O70309 24-798)
chain: GLNICTSGSATSCEECLLIHPKCAWCSKEYFGNPRSITSRCDLKANLIRNGCEGEIESPASSTHVLRNLPLSSKGSSATGSDVIQMTPQEIAVSLRPGEQTTFQLQVRQVEDYPVDLYYLMDLSLSMKDDLENIRSLGTKLAEEMRKLTSNFRLGFGSFVDKDISPFSYTAPRYQTNPCIGYKLFPNCVPSFGFRHLLPLTDRVDSFNEEVRKQRVSRNRDAPEGGFDAVLQAAVCKEKIGWRKDALHLLVFTTDDVPHIALDGKLGGLVQPHDGQCHLNEANEYTASNQMDYPSLALLGEKLAENNINLIFAVTKNHYMLYKNFTALIPGTTVEILHGDSKNIIQLIINAYSSIRAKVELSVWDQPEDLNLFFTATCQDGISYPGQRKCEGLKIGDTASFEVSVEARSCPGRQAAQSFTLRPVGFRDSLQVEVAYNCTCGCSTGLEPNSARCSGNGTYTCGLCECDPGYLGTRCECQEGENQSGYQNLCREAEGKPLCSGRGECSCNQCSCFESEFGRIYGPFCECDSFSCARNKGVLCSGHGECHCGECKCHAGYIGDNCNCSTDVSTCKAKDGQICSDRGRCVCGQCQCTEPGAFGETCEKCPTCPDACSSKRDCVECLLLHQGKPDNQTCHHQCKDEVITWVDTIVKDDQEAVLCFYKTAKDCVMMFSYTELPNGRSNLTVLREPECGSAPNAMTILLAVVGSILLIGMALLAIWKLLVTIHDRREFAKFQSERSRARYEMASNPLYRKPISTHTVDFAFNKFNKSYNGSV
With B2, the binding entry in experiment [1] and in experiment [3] was “binds” each time.
